Source: patent US20080038735A1
Results are given in words; binding and its absence hold for the method and conditions named.

Target: cytokine A
Test: ELISA: in vitro translated dAb-Tus-HA fusion (pIE7t3T) captured on anti-HA, biotinylated cytokine A, strep-HRP

B1: Vk(E5) (protein)
VL: MASTDIQMTQSPSSLSASVGDRVTITCRASQSVSSYLNWYQQKPGKAPKLLIYLASRLQSGVPSRFSGSGSGTDFTLTISSLQPEDFATYYCQQNWWLPPTFGQGTKVEIKRAA
Q: Which binding does the source give for B1 here?
A: no binding (tested: 100 nM (from the text))
